The values that follow come from article PMC4764579, “Structural insights into the mechanism of activation of the TRPV1 channel by a membrane-bound tarantula toxin” (eLife, 2016).

Chains of the proteins cited; added tags and fusions are not shown. Lines headed by an entry give the natural chain unless they say otherwise; changes in a name come on top. A line that says so, or that is headed by a name, gives the form on record, which may keep a tag or linker. Residues count along the entry.
TRPV1 construct used for cryo-EM (pore turret residues 604-626 deleted) (O35433, form named): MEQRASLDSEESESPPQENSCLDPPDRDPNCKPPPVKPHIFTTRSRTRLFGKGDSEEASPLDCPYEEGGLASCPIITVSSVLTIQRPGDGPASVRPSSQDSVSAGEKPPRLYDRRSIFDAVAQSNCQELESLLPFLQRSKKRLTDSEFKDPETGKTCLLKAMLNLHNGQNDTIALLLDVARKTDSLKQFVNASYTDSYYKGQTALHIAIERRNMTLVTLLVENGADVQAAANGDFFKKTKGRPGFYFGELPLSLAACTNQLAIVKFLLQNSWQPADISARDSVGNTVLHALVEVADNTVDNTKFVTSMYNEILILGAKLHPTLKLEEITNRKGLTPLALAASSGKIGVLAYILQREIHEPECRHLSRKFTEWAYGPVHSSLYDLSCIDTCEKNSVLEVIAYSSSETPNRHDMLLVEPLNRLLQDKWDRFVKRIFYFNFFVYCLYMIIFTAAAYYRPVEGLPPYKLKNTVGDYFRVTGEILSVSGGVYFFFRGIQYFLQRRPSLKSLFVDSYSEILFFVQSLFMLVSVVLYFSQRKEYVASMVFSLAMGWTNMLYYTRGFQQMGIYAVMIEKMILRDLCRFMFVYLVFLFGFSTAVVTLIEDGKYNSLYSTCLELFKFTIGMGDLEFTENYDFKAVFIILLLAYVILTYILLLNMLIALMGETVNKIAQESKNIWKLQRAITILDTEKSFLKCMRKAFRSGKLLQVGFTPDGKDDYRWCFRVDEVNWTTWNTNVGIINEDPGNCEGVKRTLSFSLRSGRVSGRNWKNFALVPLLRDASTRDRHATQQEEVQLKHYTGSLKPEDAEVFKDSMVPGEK

These are yes or no findings as the source states them, for the method shown. Some binding calls cover weakened binding; strength is not graded here.

The target in the assay is TRPV1 construct used for cryo-EM (pore turret residues 604-626 deleted) (rat) (UniProt O35433). Nature of the assay: cryo-EM structure; […] four knot densities, two DkTx per channel; apo channel refined into the fourfold-symmetric map EMD-5778; both purified.

As to “TRPV1 construct used for cryo-EM (pore turret residues 604-626 deleted) (from UniProt O35433 1-838)”, the binding result is “binds”.
